Laboratory results from article PMC3349659.

Molecular target: T1, mCherry-Rad (mouse) (UniProt O88667)
T1 sequence: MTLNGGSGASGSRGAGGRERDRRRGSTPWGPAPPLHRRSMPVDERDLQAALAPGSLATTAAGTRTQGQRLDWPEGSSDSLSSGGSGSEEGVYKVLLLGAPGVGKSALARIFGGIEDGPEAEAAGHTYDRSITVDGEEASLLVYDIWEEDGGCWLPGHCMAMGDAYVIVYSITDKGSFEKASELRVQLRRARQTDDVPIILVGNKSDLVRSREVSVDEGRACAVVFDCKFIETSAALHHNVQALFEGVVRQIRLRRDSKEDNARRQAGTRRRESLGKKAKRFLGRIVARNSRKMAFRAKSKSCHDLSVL
Experiment: co-IP; co-transfected HEK 293 cells, lysate in 50 mmol/L Tris-HCl, 150 mmol/L NaCl, 1% NP-40; precipitated with anti-Rem, anti-Gem, anti-Rem2 or anti-Rad antibody and protein G beads; blot with anti-GFP

| binding | Substance |
| --- | --- |
| no binding | CFP-tagged α1C C-terminus (domain or fragment) |
| no binding | CFP-tagged α1C III–IV loop (domain or fragment) |
| no binding | CFP-tagged α1C II–III loop (domain or fragment) |
| no binding | CFP-tagged α1C I–II loop (domain or fragment) |

No constants are given. Whether binding was seen depends on the method and setting. Binding seen in cells or lysates may run through a third protein.
